Measurements: patent publication US8729083B2, “Pyrazole compounds for controlling invertebrate pests” (BASF SE, priority 2008, dated 2014)
Some of these results come from one statement about several compounds together.

Columns and labels:
Format in all cases: in vivo
Myzus persicae [1] = experiment: Green peach aphid (Myzus persicae, mixed life stages), method b: electrostatic spray on bell pepper; conditions: 300 ppm; sprayed; after 5 days
Procedure: II.2 Green Peach Aphid (Myzus persicae, Mixed Life Stages)
(§1) The active compounds were formulated in cyclohexanone as a 10,0000 ppm solution supplied in 1.3 ml ABgene® tubes. These tubes were inserted into an automated electrostatic sprayer equipped with an atomizing nozzle and they served as stock solutions for which lower dilutions were made in 50% acetone:50% water (v/v). A nonionic surfactant (Kinetic®) was included in the solution at a volume of 0.01% (v/v).
Bell pepper plants at the first true-leaf stage were infested prior to treatment by placing heavily infested leaves from the main colony on top of the treatment plants. Aphids were allowed to transfer overnight to accomplish an infestation of 30-50 aphids per plant and the host leaves were removed. The infested plants were then sprayed by an automated electrostatic plant sprayer equipped with an atomizing spray nozzle. The plants were dried in the sprayer fume hood, removed, and then maintained in a growth room under fluorescent lighting in a 24-hr photoperiod at 25° C. and 20-40% relative humidity. Aphid mortality on the treated plants, relative to mortality on untreated control plants, was determined after 5 days.

Megoura viciae = experiment: Vetch aphid (Megoura viciae), bean leaf disks in microtiterplates; conditions: test solution 2500 mg/L; leaf disks sprayed with 2.5 μl; 6 days
Procedure: II.5 Vetch Aphid (Megoura viciae)
The active compounds were formulated in 1:3 (vol:vol) DMSO:water with different concentrations of formulated compounds.
Bean leaf disks were placed into microtiterplates filled with 0.8% agar-agar and 2.5 ppm OPUS™. The leaf disks were sprayed with 2.5 μl of the test solution and 5 to 8 adult aphids were placed into the microtiterplates which were then closed and kept at 23±1° C. and 50±5% relative humidity under fluorescent light for 6 days. Mortality was assessed on the basis of vital, reproduced aphids. Aphid mortality and fecundity was then visually assessed.

Myzus persicae [2] = experiment: Green peach aphid (Myzus persicae) through systemic means, artificial diet under membrane; conditions: 2500 ppm; pipetted into aphid diet; 3 days
From the text: II.9 Activity Against Green Peach Aphid (Myzus persicae)
For evaluating control of green peach aphid (Myzus persicae) through systemic means the test unit consisted of 96-well-microtiter plates containing liquid artificial diet under an artificial membrane.
The compounds were formulated using a solution containing 75% v/v water and 25% v/v DMSO. Different concentrations of formulated compounds were pipetted into the aphid diet, using a custom built pipetter, at two replications. After application, 5 to 8 adult aphids were placed on the artificial membrane inside the microtiter plate wells The aphids were then allowed to suck on the treated aphid diet and incubated at about 23+1° C. and about 50+5% relative humidity for 3 days. Aphid mortality and fecundity was then visually assessed.

Aphis craccivora = experiment: Cowpea aphid (Aphis craccivora), spray on potted cowpea plants; conditions: 300 ppm; sprayed; population reduction assessed after 24, 72 and 120 hours
Procedure: II.3 Cowpea Aphid (Aphis craccivora)
The active compounds were formulated in 50:50 (vol:vol) acetone:water. The test solution was prepared at the day of use.
Potted cowpea plants colonized with 100-150 aphids of various stages were sprayed after the pest population had been recorded. Population reduction was assesed after 24, 72, and 120 hours.

Aphis gossypii = experiment: Cotton aphid (Aphis gossypii, mixed life stages), method b: electrostatic spray; conditions: 300 ppm; sprayed; after 5 days
Procedure: II.1 Cotton Aphid (Aphis gossypii, Mixed Life Stages)
as §1
Cotton plants at the cotyledon stage were infested with aphids prior to treatment by placing a heavily infested leaf from the main aphid colony on top of each cotyledon. Aphids were allowed to transfer overnight to accomplish an infestation of 80-100 aphids per plant and the host leaf was removed. The infested plants were then sprayed by an automated electrostatic plant sprayer equipped with an atomizing spray nozzle. The plants were dried in the sprayer fume hood, removed from the sprayer, and then maintained in a growth room under fluorescent lighting in a 24 hr photoperiod at 25° C. and 20-40% relative humidity. Aphid mortality on the treated plants, relative to mortality on untreated control plants, was determined after 5 days.

Ceratitis capitata = experiment: Mediterranean fruitfly (Ceratitis capitata), eggs on insect diet in microtiter plates; conditions: 2500 ppm; 5 μl sprayed onto diet; 5 days
Anthonomus grandis = experiment: Boll weevil (Anthonomus grandis), eggs on insect diet in microtiter plates; conditions: test solution 2500 mg/L; 20 μl sprayed onto diet; 5 days
Procedure: II.6 Boll Weevil (Anthonomus grandis)
The compounds were formulated in 75:25 (vol:vol) water:DMSO.
For evaluating control of boll weevil (Anthonomus grandis) the test unit consisted of 24-well-microtiter plates containing an insect diet and 20-30 A. grandis eggs. Different concentrations of formulated compounds were sprayed onto the insect diet at 20 μl, using a custom built micro atomizer, at two replications. After application, the microtiter plates were incubated at 23±1° C. and 50±5% relative humidity for 5 days. Egg and larval mortality was then visually assessed.

Compound	mortality in comparison with untreated controls (Myzus persicae [1])	mortality in comparison with untreated controls (Aphis gossypii)	other results
Cc1cnc(-n2ncc(C(=O)Nc3ccnnc3)c2C(F)F)s1 [Compound 235]	at least 75%		
O=C(Nc1ccnnc1)c1cnn(C(F)F)c1C(F)(F)F [Compound 26]			mortality (Megoura viciae): at least 90%; mortality in comparison with untreated controls (Myzus persicae [2]): 100%; mortality in comparison with untreated controls (Aphis craccivora): at least 90%
C=CCn1ncc(C(=O)N(C)c2ccnnc2)c1C(F)F [Compound 215]	at least 75%	at least 75%	
Cn1c(C2CC2)nnc1-n1ncc(C(=O)Nc2ccnnc2)c1C(F)F [Compound 127]	at least 75%		
O=C(Nc1ccnnc1)c1cnn(CC(F)(F)F)c1 [Compound 19]	at least 75%	at least 75%	mortality in comparison with untreated controls (Aphis craccivora): at least 90%
Cc1ccc(CN(C(=O)c2cnn(CC(F)(F)F)c2C)c2ccnnc2)o1 [Compound 212]			mortality in comparison with untreated controls (egg and larval) (Ceratitis capitata): at least 50%
CCn1ncc(C(=O)Nc2ccnnc2)c1C [Compound 221]	at least 75%	at least 75%	
O=C(Nc1ccnnc1)c1cnn(C(F)F)c1 [Compound 25]	at least 75%	at least 75%	mortality in comparison with untreated controls (Aphis craccivora): at least 90%
C=CCn1ncc(C(=O)N(C)c2ccnnc2)c1C [Compound 230]	at least 75%	at least 75%	
Cc1nnc(-n2ncc(C(=O)N(C)c3ccnnc3)c2C(F)F)s1 [Compound 132]	at least 75%	at least 75%	
C=Cn1cc(C(=O)N(C)c2ccnnc2)c(C)n1 [Compound 218]	at least 75%	at least 75%	
CCn1ncc(C(=O)N(C)c2ccnnc2)c1C(F)F [Compound 206]	at least 75%	at least 75%	
O=C(Nc1ccnnc1)c1cnn(-c2ccc(F)cc2)c1C(F)(F)F [Compound 15]	at least 75%	at least 75%	mortality (Megoura viciae): at least 90%; mortality (egg and larval) (Anthonomus grandis): at least 50%; mortality in comparison with untreated controls (Aphis craccivora): at least 90%
Cn1cc(C(=O)Nc2ccnnc2)cn1 [Compound 16]			mortality in comparison with untreated controls (Aphis craccivora): at least 90%
CN(C(=O)c1cnn(C)c1C(F)F)c1ccnnc1 [Compound 143]	at least 75%	at least 75%	
CCn1ncc(C(=O)Nc2ccnnc2)c1C(F)F [Compound 207]	at least 75%	at least 75%	
CS(=O)(=O)c1c(C(=O)Nc2ccnnc2)cnn1CC(F)(F)F [Compound 101]			mortality in comparison with untreated controls (Aphis craccivora): at least 90%
CCc1c(C(=O)Nc2ccnnc2)cnn1-c1ccc([N+](=O)[O-])cc1 [Compound 24]	at least 75%		mortality in comparison with untreated controls (Myzus persicae [2]): 100%; mortality in comparison with untreated controls (Aphis craccivora): at least 90%
Cc1ccc(-n2ncc(C(=O)Nc3ccnnc3)c2C(F)(F)F)cc1 [Compound 42]			mortality (Megoura viciae): at least 90%; mortality in comparison with untreated controls (Aphis craccivora): at least 90%
O=C(Nc1ccnnc1)c1cnn(-c2nncn2-c2ccccc2)c1C(F)F [Compound 149]			mortality in comparison with untreated controls (Myzus persicae [2]): 100%
Cc1c(C(=O)N(CC2CCOC2)c2ccnnc2)cnn1CC(F)(F)F (centres unmarked) [Compound 194]		at least 75%	

Compound	mortality in comparison with untreated controls (Myzus persicae [1])	mortality in comparison with untreated controls (Aphis gossypii)	other results
Cc1cnc(-n2ncc(C(=O)N(C)c3ccnnc3)c2C(F)F)s1 [Compound 220]	at least 75%	at least 75%	
CN(C(=O)c1cnn(-c2ccc([N+](=O)[O-])cn2)c1C(F)F)c1ccnnc1 [Compound 134]	at least 75%	at least 75%	
O=C(Nc1ccnnc1)c1cnn(CC(F)F)c1 [Compound 18]	at least 75%	at least 75%	mortality in comparison with untreated controls (Aphis craccivora): at least 90%
CC(C)c1nnc(-n2ncc(C(=O)N(C)c3ccnnc3)c2C(F)F)n1C [Compound 108]	at least 75%	at least 75%	
Cc1c(C(=O)Nc2ccnnc2)cnn1-c1nnc(C)n1C [Compound 153]	at least 75%		
O=C(Nc1ccnnc1)c1cnn(-c2ncccn2)c1C(F)F [Compound 130]		at least 75%	
COCCn1cc(C(=O)N(C)c2ccnnc2)c(C)n1 [Compound 205]		at least 75%	mortality in comparison with untreated controls (Aphis craccivora): at least 90%
CN(C(=O)c1cnn(-c2cccnc2)c1C(F)F)c1ccnnc1 [Compound 191]	at least 75%		
O=C(Nc1ccnnc1)c1cnn(CC(F)(F)F)c1C(F)(F)c1ccccc1 [Compound 171]	at least 75%		
O=C(Nc1ccnnc1)c1cnn(-c2ncccc2[N+](=O)[O-])c1C(F)F [Compound 121]			mortality in comparison with untreated controls (Myzus persicae [2]): 100%
Cc1c(C(=O)Nc2ccnnc2Br)cnn1CC(F)(F)F [Compound 104]			mortality in comparison with untreated controls (Myzus persicae [2]): 100%
O=C(Nc1ccnnc1)c1cnn(C(F)F)c1C(F)F [Compound 22]			mortality in comparison with untreated controls (egg and larval) (Ceratitis capitata): at least 50%; mortality in comparison with untreated controls (Aphis craccivora): at least 90%
COCCn1cc(C(=O)Nc2ccnnc2)c(C)n1 [Compound 204]		at least 75%	mortality (Megoura viciae): at least 90%
O=C(Nc1ccnnc1)c1cnn(-c2cccnc2)c1C(F)(F)F [Compound 189]	at least 75%	at least 75%	
CN(C)C(=O)c1c(C(=O)Nc2ccnnc2)cnn1CC(F)(F)F [Compound 57]			mortality (Megoura viciae): at least 90%
O=C(Nc1c(Cl)cnnc1Cl)c1cnn(CC(F)(F)F)c1C(F)F [Compound 66]			mortality (egg and larval) (Anthonomus grandis): at least 50%
Cc1nnc(-n2ncc(C(=O)Nc3ccnnc3)c2C(F)F)s1 [Compound 131]	at least 75%		
CN(C(=O)c1cnn(CC(F)(F)F)c1C(F)(F)F)c1ccnnc1 [Compound 9]		at least 75%	
COc1ccc(-n2ncc(C(=O)Nc3ccnnc3)c2C(F)(F)F)cc1 [Compound 14]	at least 75%	at least 75%	mortality (Megoura viciae): at least 90%; mortality in comparison with untreated controls (Myzus persicae [2]): 100%; mortality (egg and larval) (Anthonomus grandis): at least 50%; mortality in comparison with untreated controls (Aphis craccivora): at least 90%
CN(C(=O)c1cnn(CC(F)(F)F)c1C(=O)N(C)c1ccccc1)c1ccnnc1 [Compound 137]			mortality (egg and larval) (Anthonomus grandis): at least 50%
Cc1c(C(=O)N(c2ccnnc2)C(C)C)cnn1CC(F)(F)F [Compound 80]			mortality in comparison with untreated controls (egg and larval) (Ceratitis capitata): at least 50%
